Screening data, single-dose tests

Sequences of proteins named here, by UniProt entry; tags and fusion partners are left off. Residues count along the entry.
UniProt Q4DA54, 1-478: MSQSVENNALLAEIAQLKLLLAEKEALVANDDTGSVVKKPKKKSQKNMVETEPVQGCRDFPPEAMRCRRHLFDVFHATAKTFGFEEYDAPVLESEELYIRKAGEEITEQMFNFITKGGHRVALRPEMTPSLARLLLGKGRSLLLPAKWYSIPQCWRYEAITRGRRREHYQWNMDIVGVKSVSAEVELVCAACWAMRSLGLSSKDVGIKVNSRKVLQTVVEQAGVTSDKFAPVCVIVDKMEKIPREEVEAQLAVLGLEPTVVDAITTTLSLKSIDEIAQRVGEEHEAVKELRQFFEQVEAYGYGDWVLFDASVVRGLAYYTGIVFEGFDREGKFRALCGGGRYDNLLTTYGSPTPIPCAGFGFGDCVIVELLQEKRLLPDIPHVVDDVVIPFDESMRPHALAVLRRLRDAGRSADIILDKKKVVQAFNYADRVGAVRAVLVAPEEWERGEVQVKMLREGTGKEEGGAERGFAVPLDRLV
UniProt P9WPC5, whole entry: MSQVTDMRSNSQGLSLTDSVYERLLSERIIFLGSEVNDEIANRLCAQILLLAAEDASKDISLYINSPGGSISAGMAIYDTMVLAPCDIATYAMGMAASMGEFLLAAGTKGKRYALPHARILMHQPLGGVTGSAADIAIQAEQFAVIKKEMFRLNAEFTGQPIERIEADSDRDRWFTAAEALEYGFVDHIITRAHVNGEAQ
UniProt P9WPC3, whole entry partner: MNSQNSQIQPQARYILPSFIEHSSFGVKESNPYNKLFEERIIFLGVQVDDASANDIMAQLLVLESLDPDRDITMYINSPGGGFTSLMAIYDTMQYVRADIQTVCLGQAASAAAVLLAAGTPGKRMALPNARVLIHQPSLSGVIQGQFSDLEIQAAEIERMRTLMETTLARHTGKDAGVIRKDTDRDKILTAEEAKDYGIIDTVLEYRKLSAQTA
UniProt Q8IDJ8, 1-583: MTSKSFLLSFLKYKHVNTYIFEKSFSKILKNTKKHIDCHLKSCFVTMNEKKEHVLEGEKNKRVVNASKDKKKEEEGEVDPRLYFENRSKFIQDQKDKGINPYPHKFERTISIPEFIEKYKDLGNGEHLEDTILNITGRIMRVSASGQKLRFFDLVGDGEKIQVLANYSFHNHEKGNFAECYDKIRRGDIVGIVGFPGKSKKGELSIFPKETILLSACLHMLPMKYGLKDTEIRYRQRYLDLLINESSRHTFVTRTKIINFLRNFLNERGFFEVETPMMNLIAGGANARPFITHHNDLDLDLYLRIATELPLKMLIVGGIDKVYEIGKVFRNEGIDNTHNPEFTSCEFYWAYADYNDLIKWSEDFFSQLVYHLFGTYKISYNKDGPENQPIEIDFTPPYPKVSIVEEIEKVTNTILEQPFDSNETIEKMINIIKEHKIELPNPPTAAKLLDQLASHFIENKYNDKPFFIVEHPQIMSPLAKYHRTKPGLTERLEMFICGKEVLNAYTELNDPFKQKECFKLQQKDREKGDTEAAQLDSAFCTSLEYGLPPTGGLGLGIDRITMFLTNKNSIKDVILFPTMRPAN

Results are given as percent effect.
The controls that fix the scale are not given in the record; negative values are as filed.
The compounds are a random part of those screened.
Two or more numbers in one place are separate tests of the same structure; such repeats can differ widely.

A: 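Cell assay of Leishmania donovani living inside macrophages; the read-out is not stated. Compounds at 30 µM. The record gives no direction; compounds that gave an IC50 in retests scored well above the rest, so higher reads as stronger inhibition. Size under these conditions: about 69,000 compounds, about 1,000 of them at 50% or above in at least one test.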
B: 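Histidine-tRNA ligase, Trypanosoma cruzi CL Brener (UniProt Q4DA54). Enzyme assay of histidyl-tRNA synthetase; the read-out is not stated. Compounds at 30 µM. The record gives no direction; compounds that gave an IC50 in retests scored well above the rest, so higher reads as stronger inhibition. Of about 69,000 compounds tested this way, about 31 (0.045%) reached 50% or more in at least one test.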
C: 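Protease assay of ClpP1P2, read by the AMC dye that it sets free. Target: ClpP1P2, Mycobacterium tuberculosis (UniProt P9WPC5 and UniProt P9WPC3). Tested at 50 µM. Higher reads as stronger inhibition, judged from the few compounds that gave an IC50. Most other retested compounds had strongly negative values. About 69,000 compounds were tested under these conditions; 0.015% (about 10) showed 50% or more at least once.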
D: 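Assay of Toxoplasma gondii numbers, read through their beta-galactosidase reporter with a colour substrate. Compounds at 10 µM. The record gives no direction; the compounds picked for IC50 retests had high values, so higher reads as fewer parasites. About 67,000 compounds were tested under these conditions; 0.38% (about 260) showed 50% or more at least once.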
E: 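Enzyme assay of the cytosolic lysyl-tRNA synthetase in 384-well plates, read by luminescence. Target: Lysine-tRNA ligase, Plasmodium falciparum 3D7 (UniProt Q8IDJ8). Compounds at 30 µM. Higher reads as stronger inhibition, judged from the few compounds that gave an IC50. Size under these conditions: about 69,000 compounds, about 49 of them at 50% or above in at least one test.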

CCN1CCC2(COCc3cnc(NCC4CC4)nc32)C1.O=C(O)C(F)(F)F (centres unmarked) read A: 37.33%; D: 14.23%. For Oc1nc(C2CC2)nc2c1nnn2C1CCN(Cc2ccoc2)CC1 the result was A: 5.597%; B: 8.046%; C: -1.062%; D: 15.5%; E: 0.3702%. Result for OCc1ccc(CN2CCC(n3cc(C4CCCCC4)nn3)CC2)o1 was A: 14.47%; B: 9.278%; C: 8.783%; D: -14.7%; E: 4.076%. Result for Cc1n[nH]c2ncc(CNC3CCCN(c4ncccn4)C3)cc12.Cl (centres unmarked) was A: 15.17%; D: -0.04701%.

O=C(O)C(F)(F)F.[H][C@@]12CN(C(C)=O)CCO[C@]1([H])CN(S(=O)(=O)c1cccnc1)C2 read A: 14.63%; D: -9.383%. For CN1CCCCC1C(=O)N1CCN(c2ccccc2C#N)CC1 (centres unmarked) the result was A: 5.773%; B: 3.867%; C: -17.53%; D: -8.841%; E: -1.389%. With Cc1ccc2c(n1)N(CC1CC1)CCN(C(=O)c1ccncc1F)C2 the screen gave B: 8.537%; C: -7.755%; E: 2.676%. For Cn1cc(-c2nnc3sc(C4CC4)nn23)cn1 the result was A: 33.27%; B: 5.941%; C: 9.042%; E: 2.151%.

O=c1[nH]nc2c(S(=O)(=O)N3CCCCC3)cccn12 gave A: 13.27%; B: 13%; C: 0.5321%; D: -12.8%; E: 4.334%. With CCN(C)c1ncnc2c1CCN(C(=O)N1CCOCC1)CC2 the screen gave A: -26.4%; B: 4.95%; C: -1.211%; D: 6.329%; E: 3.944%. [H][C@]12CC[C@]([H])(CN(S(C)(=O)=O)C1)N(CCC(=O)NCc1ccco1)C2 gave A: 23.28%; D: -4.856%. For COc1cc2c(cc1OC)C(=O)C(Sc1nncn1C)C2 (centres unmarked) the result was A: 20.32%; B: 1.98%; C: 18.99%; D: 25.23%; E: -2.219%.

With O=C(c1cn(CC(=O)N2CCCCC2)c2ccccc12)C1CC1 the screen gave A: 5.656%; B: 3.03%; C: 25.15%; D: -19.32%; E: -2.362%. CN(C)C(=O)N1CCC2(CC1)CNc1ccc(F)cc12.Cl read A: 6.937%; D: -17.36%. For O=C(CN1CCC(c2cc(=O)n3c(n2)CCCCC3)CC1)N1CCCC1 the result was A: -8.081% and 4.601%; B: 2.985%; C: 0.8225%; D: -8.716%; E: 0.6682%. Result for O=C(NCc1cc[nH]n1)N1CCCC(N2CCCC2)C1 (centres unmarked) was A: 24.25%; B: 4.046%; C: -26.99%; D: -33.49%; E: 2.519%.

Cc1ccc(CNCC2CCCN2c2cccnn2)s1 (centres unmarked) read A: 35.21%; B: 8.832%; C: -28.02%; D: 1.569%; E: 1.34%. For COCC(=O)N1CCCC1c1ccnc(Nc2cnccn2)n1 (centres unmarked) the result was A: 8.12%; B: 0.5405%; C: -0.6219%; D: 3.523%; E: 4.065%. O=C(O)C(F)(F)F.O=C(O)C(F)(F)F.O=C(O)C(F)(F)F.[H][C@]12CCN(c3ncc(F)cn3)C[C@@]1([H])OCCN(Cc1ccncc1)C2 read A: 5.087%; D: 11.39%. Cl.O=C(CN1CCC[C@@H]1C(=O)O)NCCOc1cccc(C(F)(F)F)c1 gave A: 23.44%; D: -1.42%.

For Cc1cc(N(C)C)nc(NCCn2cccn2)n1 the result was A: 17.62%; B: 10%; C: 4.492%; D: 8.636%; E: 9.118%. CC(NC(N)=O)C(=O)N(C)Cc1cccc(C(F)(F)F)c1 (centres unmarked) gave A: -19.2%; B: 5.419%; C: -5.832%; D: 5.232%; E: 4.858%. With CN(C)c1cccc(C(=O)Nc2cnn(CC(N)=O)c2)c1 the screen gave A: 20.02%; B: 4.762%; C: -7.013%; D: 1.28%; E: -0.5256%.

The values are deposited in ChEMBL (CHEMBL3988442, “University of Dundee, Small-Polar-MMV Screening Library” (2021)).